For 13 substances, binding results are on record in doi:10.1101/2020.10.21.348805 (bioRxiv, 2020).

The target in assay [1] is T1, GST-OsDMI3 (rice (Oryza sativa)) (UniProt Q6AVM3).
T1 sequence: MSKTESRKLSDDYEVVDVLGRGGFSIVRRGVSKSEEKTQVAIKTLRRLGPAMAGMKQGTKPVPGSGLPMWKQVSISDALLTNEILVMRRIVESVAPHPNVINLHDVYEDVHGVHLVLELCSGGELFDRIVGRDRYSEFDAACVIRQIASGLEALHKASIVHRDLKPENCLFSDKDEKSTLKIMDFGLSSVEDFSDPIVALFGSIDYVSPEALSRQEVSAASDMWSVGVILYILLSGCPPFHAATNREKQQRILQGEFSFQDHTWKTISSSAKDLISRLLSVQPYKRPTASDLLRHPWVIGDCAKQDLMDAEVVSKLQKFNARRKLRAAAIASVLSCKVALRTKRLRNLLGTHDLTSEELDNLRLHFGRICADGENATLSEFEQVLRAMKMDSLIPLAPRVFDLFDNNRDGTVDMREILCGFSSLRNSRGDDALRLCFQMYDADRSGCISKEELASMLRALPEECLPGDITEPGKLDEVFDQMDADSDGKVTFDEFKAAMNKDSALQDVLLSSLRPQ
As to the kind of experiment: pull-down.

The target in assay [2] is T2, OsDMI3 in pC1300-cLUC (LCI) (rice (Oryza sativa)) (UniProt Q6AVM3).
T2 sequence: T1 sequence
As to the kind of experiment: split reporter.

Assay [3] deals with T3, OsDMI3 (pGBKT7-OsDMI3) (rice (Oryza sativa)) (UniProt Q6AVM3).
T3 sequence: T1 sequence
The assay can be described thus: two-hybrid.

In assay [4] the target is T4, EF hands domain (337 to 516 amino acids) of OsDMI3, Y2H construct (rice (Oryza sativa)) (UniProt Q6AVM3).
T4 sequence: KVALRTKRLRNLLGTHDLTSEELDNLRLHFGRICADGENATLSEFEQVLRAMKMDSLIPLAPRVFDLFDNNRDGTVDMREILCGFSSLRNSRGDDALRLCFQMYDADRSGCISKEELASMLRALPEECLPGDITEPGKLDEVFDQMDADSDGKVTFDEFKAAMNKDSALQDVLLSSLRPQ
As to the kind of experiment: two-hybrid.

Assay [5] has as its target T5, EF hands domain (337 to 516 amino acids) of OsDMI3, LCI construct (rice (Oryza sativa)) (UniProt Q6AVM3).
T5 sequence: T4 sequence
As to the kind of experiment: split reporter.

Assay [6] concerns the target T6, OsDMI3 split-YFP fusion for BiFC (rice (Oryza sativa)) (UniProt Q6AVM3).
T6 sequence: T1 sequence
As to the kind of experiment: split reporter.

Assay [7] concerns the target T7, OsDMI3-Myc (rice (Oryza sativa)) (UniProt Q6AVM3).
T7 sequence: T1 sequence
As to the kind of experiment: co-IP.

No constants are given. Whether binding was seen depends on the method and setting. Binding calls can cover weak binding; strength is not graded here. For part of these data: Tags and fused reporters may be left off the sequences shown. For part of these data: Binding seen in cells or lysates may run through a third protein.

As to “His-OsMKK1 (rice (Oryza sativa)) (enzyme)”, the binding entry in assay [1] is given as “binds”.
As to “N-terminus domain (1 to 65 amino acids) of OsMKK1, LCI construct (rice (Oryza sativa)) (domain or fragment)”, in assay [2], the binding entry is “binds”.
Turning to “N-terminus domain (1 to 65 amino acids) of OsMKK1, Y2H construct (rice (Oryza sativa)) (domain or fragment)”, the binding result in assay [3] is “binds”.
As for “OsMKK1 (pGADT7-OsMKK1) (rice (Oryza sativa)) (enzyme)”, the binding entry in assay [4] and in assay [3] was “binds” each time.
Consider “OsMKK1 in pC1300-nLUC (LCI) (rice (Oryza sativa)) (enzyme)”, for which the binding result in assay [2] and in assay [5] was “binds” each time.
Consider “OsMKK1 split-YFP fusion for BiFC (rice (Oryza sativa)) (enzyme)”, for which the binding result in assay [6] is “binds”.
In the case of “OsMKK1-Flag (rice (Oryza sativa)) (enzyme)”, the binding result in assay [7] is listed as “binds”.
Take “OsMKK1^T25A, LCI construct (rice (Oryza sativa)) (enzyme)”: in assay [2], the binding entry is “binds”.
For the substance “OsMKK1^T25A, Y2H construct (rice (Oryza sativa)) (enzyme)”, the binding entry in assay [3] is on record as “binds”.
Turning to “OsMKK1^T25D, LCI construct (rice (Oryza sativa)) (enzyme)”, in assay [2], the binding entry is given as “binds”.
With “OsMKK1^T25D, Y2H construct (rice (Oryza sativa)) (enzyme)”, the binding result in assay [3] is listed as “binds”.
Regarding “OsMKK10-2, BiFC construct (rice (Oryza sativa)) (enzyme)”, in assay [6], the binding entry was “no binding”.
“OsMKK10-2, Y2H construct (rice (Oryza sativa)) (enzyme)”: the binding entry in assay [3] is “no binding”.
